The nature of the assay: qHTS Assay for Lipid Storage Modulators in Drosophila S3 Cells.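 For cell number change: cells counted by Cell Tracker Red CMTPX staining in the red channel.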 The following applies: BODIPY lipid droplet fluorescence, 18-24 h; for cell number change: measured here: cell count max response, cells fed with added oleic acid. The gist of the method: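 Drosophila S3 cells loaded with oleic acid (400 uM, as added) and compounds at several concentrations; lipid droplets imaged by 488-nm laser-scanning cytometry, 500–530 nm intensity and object ratio to cell channel. Percent activity normalized to 20 uM Triacsin C.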

Setting [1] is: measured here: lipid fluorescence (Fed channel) AC50, cells fed with added oleic acid.
[2] abbreviates: measured here: cell number channel AC50, cells fed with added oleic acid.

This is one part of the list. Shown are side measurements of this screen, not its main read-out; they come without a call. Most of these compounds were active or inconclusive in the main read-out, so they are no random draw. The note in brackets gives the kind of curve behind each potency; many fits are weak.

The term AC50 denotes the concentration at which the activity in the assay is half-maximal. High values mean weaker potency, low ones greater potency. Turning to `Cc1nc(N2CCN(C(=O)COc3ccccc3)CC2)c2c(C)c(C)sc2n1`, the cell number change was determined as 15.2%. Besides, the concentration at half-maximal activity (AC50) under setting [1] is 0.461 µM [rising, partial curve, poor fit].

In the case of `Cc1nc2ccccc2c(=O)n1/N=C/c1ccncc1`, under setting [1], the concentration at half-maximal activity (AC50) was 6.51 µM [rising, single point].

In the case of `COc1cccc(C(C(=O)NC2CCCCC2)N(CCN2CCOCC2)C(=O)C2COc3ccccc3O2)c1` (centres undefined), the cell number change is -5.97%. For the same molecule, under setting [1], the half-maximal activity concentration (AC50) was 2.59 µM [falling, single point].

In the case of `CC(C)Oc1ccc(C(=O)NC2CCCCC2)cc1`, the concentration at half-maximal activity (AC50) under setting [1] is 2.59 µM [rising, partial curve].

For `O=C(CCc1ccc(S(=O)(=O)N2CCOCC2)cc1)N1CCCC1`, the cell number change is 11%. Moreover, the AC50 under setting [1] was 1.16 µM [falling, single point].

Regarding `O=C(O)CCCNC(=O)/C(=C\c1ccccc1F)NC(=O)c1ccccc1`, the cell number change was -49%. Also, the half-maximal activity concentration (AC50) under setting [2] was 16.4 µM [falling, single point].

`CCn1c(C)nnc1SCC(=O)Nc1ccccc1Cl`: the cell number change turned out to be 2.24%. For the same molecule, under setting [1], the concentration at half-maximal activity (AC50) is 1.16 µM [rising, full curve].

As for `COc1ccc(N2CCN(C(=O)CCc3nc(-c4ccc(C)cc4)no3)CC2)cc1`, the cell number change was -7.25%. The concentration at half-maximal activity (AC50) under setting [1] was 8.2 µM [falling, partial curve].

In the case of `O=C(NC(=S)Nn1cnc2c(cnn2-c2ccccc2)c1=O)c1ccc(Oc2ccccc2)cc1`, the cell number change was -50.3%. Besides, the AC50 under setting [2] was 29.1 µM [falling, single point]. Also, under setting [1], the AC50 was 0.58 µM [rising, single point].

As for `O=C(CNC(=O)c1ccco1)Nc1ccc(N2CCCCCC2)cc1`, the cell number change stood at 2.94%. Also, the half-maximal activity concentration (AC50) under setting [1] is 20.6 µM [rising, single point].

For `COC(=O)c1[nH]c2ccc(Cl)cc2c1NC(=O)CN1CCc2cc(OC)c(OC)cc2C1`, the cell number change is -35.4%. Moreover, the AC50 under setting [1] is 1.84 µM [rising, partial curve].

In the case of `O=C(COC(=O)/C=C/c1ccc(Cl)cc1)NC1CCCC1`, the cell number change came to 11.9%. Moreover, the concentration at half-maximal activity (AC50) under setting [1] is 4.11 µM [falling, single point].

For `CN(Cc1ccccc1NS(=O)(=O)c1ccc(Cl)cc1)C1CCCCC1`, the cell number change is -4.87%.

For the molecule `Cc1cc(C)cc(C(=O)NC(CC(N)=O)c2ccc(N3CCC(Br)CC3)c([N+](=O)[O-])c2)c1` (centres undefined), the cell number change is 33.8%. Moreover, under setting [2], the AC50 is 29.1 µM [rising, single point]. The concentration at half-maximal activity (AC50) under setting [1] is 0.58 µM [rising, single point].

`COc1ccc(Cl)cc1NC(=O)COC(C)=O`: the cell number change worked out at 23.9%. The half-maximal activity concentration (AC50) under setting [1] is 5.17 µM [rising, partial curve].

`Cc1ccc(-n2[nH]c(C)c(/C=C3/C=Nc4ccccc43)c2=O)cc1C`: the cell number change is -29.6%. The concentration at half-maximal activity (AC50) under setting [1] was 16.4 µM [falling, single point].

In the case of `CCOc1cc(CN2CCSCC2)ccc1O`, the cell number change was -1.66%. The AC50 under setting [1] was 18.4 µM [falling, partial curve].

As to `CC(Sc1nncs1)C(=O)NCC(=O)Nc1ccc(F)c(F)c1F` (centres undefined), the cell number change came to 1.97%. For the same molecule, the half-maximal activity concentration (AC50) under setting [2] was 2.31 µM [rising, single point]. Moreover, under setting [1], the concentration at half-maximal activity (AC50) is 1.3 µM [rising, partial curve].

As to `CC(NC(=O)C1CCN(c2nnc(N3CCCC3=O)s2)CC1)c1ccccc1` (centres undefined), the cell number change was -2.31%. For the same molecule, under setting [1], the AC50 is 6.51 µM [rising, single point].

As to `CCc1nnc(NC(=O)C2CCCN2C(=O)Nc2ccc(Cl)cc2)s1` (centres undefined), the cell number change is -25.7%. Moreover, the AC50 under setting [2] is 0.82 µM [falling, partial curve, poor fit].

On to `O=c1c2ccccc2nc2n1CCc1c-2[nH]c2ccccc12`, for which the cell number change is 1.76%. Moreover, under setting [2], the half-maximal activity concentration (AC50) is 0.731 µM [rising, full curve, poor fit]. Further, under setting [1], the half-maximal activity concentration (AC50) was 1.03 µM [rising, full curve].

Turning to `Cc1cc(NC(=O)Cc2ccc(Br)cc2)no1`, the cell number change is -11.1%.

As to `Cn1c(SCC(=O)C(C)(C)C)nnc1-c1ccccn1`, the cell number change is 77.9%. For the same molecule, under setting [2], the AC50 is 16.4 µM [rising, partial curve].

`O=C(COc1ccc(S(=O)(=O)N2CCOCC2)cc1)N1CCCCCC1`: the cell number change is -5.58%. Further, under setting [1], the AC50 is 3.55 µM [falling, full curve, poor fit].

For the molecule `Cc1c([N+](=O)[O-])cc(S(=O)(=O)Nc2ccc(-c3ccc(N4CCCC4)nn3)cc2)cc1[N+](=O)[O-]`, the cell number change stood at 21.3%.

For the molecule `O=C(Nc1ccc(S(=O)(=O)N2CCOCC2)cc1)c1ccc(Cl)cc1Cl`, the cell number change was -21.6%. Moreover, the AC50 under setting [1] was 20.6 µM [falling, partial curve].

Take `Cc1ccc(C)c(-n2nnnc2SCC(=O)NNC(=O)c2ccco2)c1`: the cell number change is 5.49%.

For the molecule `CN1C(=O)C(O)(CC(=O)c2ccccn2)c2cc(Br)ccc21` (centres undefined), the cell number change was 21.6%. Further, the half-maximal activity concentration (AC50) under setting [1] is 6.51 µM [falling, single point].

On to `CCOc1ccc(NC(=O)CN(C)C(=O)C2CSC3(C)CCC(=O)N23)cc1OCC` (centres undefined), for which the cell number change is -11.4%.

In the case of `CCN(CCNS(=O)(=O)c1ccc2c(c1)oc(=O)n2C)c1ccccc1`, the cell number change is -1.45%.

Regarding `O=C(C1CCCC1)N1CCC(CC2CC(c3ccc(Cl)cc3)=NO2)(C(=O)NCC2CCCCC2)CC1` (centres undefined), the cell number change was 51.8%. For the same molecule, the AC50 under setting [2] was 29.1 µM [rising, single point].

Consider `COc1ccc(OC)c(C2CC(=O)c3c([nH]c(C(=O)OCC4CCCO4)c3C)C2)c1` (centres undefined), for which the cell number change came to 12.4%. Besides, under setting [2], the AC50 was 4.61 µM [rising, single point]. For the same molecule, the half-maximal activity concentration (AC50) under setting [1] is 0.651 µM [rising, partial curve].

For the molecule `COc1ccc(Cl)cc1NS(=O)(=O)c1c(C)[nH]c(=O)[nH]c1=O`, the cell number change came to 41.5%. For the same molecule, under setting [2], the half-maximal activity concentration (AC50) was 2.06 µM [rising, full curve]. The AC50 under setting [1] is 4.11 µM [rising, full curve].

As to `CCOc1ccc2nc(NCCNC(=S)NCCCN(C)C)c(C#N)cc2c1`, the cell number change amounted to 6.68%. For the same molecule, the AC50 under setting [1] is 3.66 µM [falling, single point].

As for `COc1ccc(C(=O)NCC(=O)OCC(=O)NC2CCCC2)cc1`, the cell number change was 121%. Further, under setting [2], the AC50 is 5.17 µM [rising, full curve]. The concentration at half-maximal activity (AC50) under setting [1] was 6.51 µM [rising, single point].

`Cc1sc2ncnc(SCC(=O)NNC(=O)c3ccco3)c2c1C`: the cell number change came to 4.64%.

As for `CCOC(=O)c1ccc(NC(=O)N2CCN(c3ccccn3)CC2)cc1`, the cell number change came out at 3.17%. In addition, the AC50 under setting [1] is 0.461 µM [rising, partial curve, poor fit].

Turning to `CC(=O)Nc1cc(Cl)c(N=Cc2ccc(O)cc2O)cc1Cl`, the cell number change was -29.4%. Further, under setting [2], the AC50 was 2.06 µM [rising, partial curve]. Moreover, the concentration at half-maximal activity (AC50) under setting [1] was 25.9 µM [falling, single point].

As for `O=S(=O)(Nc1ccc(N2CCCCC2)cc1)c1ccc(F)cc1`, the cell number change was -37.8%. Besides, the AC50 under setting [2] was 32.6 µM [falling, single point]. Under setting [1], the half-maximal activity concentration (AC50) is 29.1 µM [falling, single point].

Regarding `CCc1cc2c(NC3CCCC3)ncnc2s1`, the cell number change was -2.88%.

With `O=C(O)C1C2C=CC(C2)C1C(=O)NCc1ccccc1` (centres undefined), the cell number change is -46.3%. Also, the concentration at half-maximal activity (AC50) under setting [2] is 11.6 µM [falling, partial curve, poor fit]. Moreover, the AC50 under setting [1] was 8.2 µM [rising, partial curve].

Consider `CCOC(=O)c1ccc(/C=C2/C=C(c3ccccc3)N(c3ccc(Cl)c(C(=O)O)c3)C2=O)cc1`, for which the cell number change is 5.79%. Under setting [1], the AC50 was 20.6 µM [falling, partial curve].

Regarding `O=S(=O)(NCc1ccccn1)c1cc(C(F)(F)F)ccc1Cl`, the cell number change was -30.7%. Further, the AC50 under setting [2] was 0.00461 µM [falling, full curve, poor fit]. The AC50 under setting [1] was 29.1 µM [falling, single point].

In the case of `O=C(COc1ccc(S(=O)(=O)N2CCCC2)cc1Cl)NC1CC1`, the cell number change turned out to be 38.9%. The half-maximal activity concentration (AC50) under setting [2] was 14.6 µM [rising, partial curve]. For the same molecule, the AC50 under setting [1] was 6.51 µM [falling, single point].

Consider `CCOc1cccc2cc(-c3csc(NC(=O)CCC(=O)NCCCN4CCC(C)CC4)n3)c(=O)oc12`, for which the cell number change was 28.8%. The half-maximal activity concentration (AC50) under setting [1] is 0.164 µM [rising, full curve].

For `CCOC(=O)c1c(C)[nH]c(C(=O)COC(=O)CCS(=O)(=O)c2ccc(C)cc2)c1C`, the cell number change was -11.2%. Under setting [1], the half-maximal activity concentration (AC50) was 3.26 µM [rising, partial curve, poor fit].

Consider `N#CC(=C1SC=CS1)c1nc(-c2ccccc2)cs1`, for which the cell number change was found to be 39.7%. Moreover, under setting [2], the AC50 is 0.0058 µM [rising, full curve, poor fit].

For `CCN1CCN(C(=O)NC2CCCCC2)CC1`, the cell number change was found to be 5.77%.

As for `CCSc1nc(-c2ccccc2)nc(C(Cl)Cl)n1`, under setting [1], the half-maximal activity concentration (AC50) is 5.8 µM [falling, partial curve].

Take `O=C(NCc1ccccc1F)c1ccncc1`: the cell number change was 20.8%. Also, the concentration at half-maximal activity (AC50) under setting [1] is 25.9 µM [falling, single point].

With `O=C(NCc1ccc(F)cc1)c1ccc(CNc2c(N3CCOCC3)c(=O)c2=O)cc1`, the cell number change was -3.86%. Further, the AC50 under setting [2] is 0.00517 µM [falling, full curve, poor fit]. The half-maximal activity concentration (AC50) under setting [1] was 3.26 µM [falling, full curve, poor fit].

On to `Cc1cccc(/C=C(\C(=O)C(=O)O)c2ccc3ccccc3n2)c1`, for which the cell number change came out at 24%. For the same molecule, the concentration at half-maximal activity (AC50) under setting [1] is 29.1 µM [rising, single point].

Turning to `COc1ccc(NC(=S)Nn2cnnc2)c(OC)c1`, the cell number change came out at 9.54%. Moreover, the AC50 under setting [2] was 0.146 µM [rising, full curve, poor fit].

Consider `CCC(C)Sc1nnc(Cc2cc(=O)[nH]c(=O)[nH]2)n1-c1ccc(OC)cc1` (centres undefined), for which the cell number change was -11.1%. For the same molecule, under setting [1], the concentration at half-maximal activity (AC50) is 0.461 µM [falling, full curve, poor fit].

On to `O=C(N/N=C/c1ccc2ncccc2c1)c1cccc([N+](=O)[O-])c1`, for which the cell number change is 18.5%. The AC50 under setting [1] was 29.1 µM [falling, single point].

For `Cc1cccc(C(P(=O)(c2ccccc2)c2ccccc2)P(=O)(c2ccccc2)c2ccccc2)n1`, the cell number change is -25.2%. Under setting [1], the AC50 was 29.1 µM [falling, single point].

In the case of `COc1ccc(-n2c(SCC(=O)Nc3ccc(NC(C)=O)cc3)nc3c([nH]c4ccccc43)c2=O)cc1OC`, the cell number change is 0.379%. The half-maximal activity concentration (AC50) under setting [1] was 6.51 µM [rising, single point].

`Cc1ccc(N2C(=O)C3CC3C2=O)cc1` (centres undefined): the cell number change was 29.3%. Also, the AC50 under setting [2] is 0.00461 µM [falling, full curve, poor fit].

As for `Cc1[nH]c2ccccc2c1C(=O)CN1CCC(C)CC1`, the cell number change was determined as 35.9%. Moreover, the AC50 under setting [2] was 18.4 µM [rising, single point].

The values are drawn from PubChem BioAssay AID2685 (National Center for Advancing Translational Sciences (NCATS), 2010).
